Values quoted from earlier work in patent US7981928B2, “Chemotherapy method using x-rays” (Nanodynamics, Inc., priority 2002, dated 2011).
For at least one compound, name, drawing or mass did not settle the structure.

Legend:
[1] = cited from earlier work
[2] = cited from earlier work; remark: listed apart in the source

| Compound | K(obs) (kinetic stability) [1] | Log Keg (thermodynamic equilibrium stability) [2] |
| --- | --- | --- |
| CC(O)CN1CCN(CC(=O)[O-])CCN(CC(=O)[O-])CCN(CC(=O)[O-])CC1.[Gd+3] (stereo not shown) [Gd-DO3, Gd-DO3A] | 6.3e-05 s⁻¹ | 23.8 |
| O=C([O-])CN(CCN(CC(=O)[O-])CC(=O)O)CCN(CC(=O)[O-])CC(=O)O.[Gd+3] [Gd-DTPA] | 0.0012 s⁻¹ | 22.2 |
